Experimental data as given in patent publication US20250172543A1, “HIGH DENSITY 3D HEPATOCYTE SPHEROID PLATFORM FOR DRUG ADME STUDIES” (Discovery Life Sciences, LLC, priority 2018, published 2025).

System: 3D primary human hepatocyte (PHH) high density spheroids
Experiment: 3D PHH high density spheroid drug clearance assay
Type: in vitro ADME
Details: 0.1 μM substrate, 6-well spheroid insert, in vivo hepatic clearance predicted from in vitro Clint by well stirred model

CN1C(=O)CN=C(c2ccccc2)c2cc(Cl)ccc21 [Diazepam]
Predicted CLh, 3D HD Spheroids: 0.09
